Results are given in words; binding and its absence hold for the method and conditions named. In cells and extracts the contact can be indirect. Some results given as binding are weak or reduced against the parent protein; the word gives no strength. Sequences can lack the tags named with a protein.
Target: T1, Bcl-2 antagonist killer 1 (BAK) (human (endogenous in NPC-TW 039 and NPC-TW 076)), Q16611
T1 chain: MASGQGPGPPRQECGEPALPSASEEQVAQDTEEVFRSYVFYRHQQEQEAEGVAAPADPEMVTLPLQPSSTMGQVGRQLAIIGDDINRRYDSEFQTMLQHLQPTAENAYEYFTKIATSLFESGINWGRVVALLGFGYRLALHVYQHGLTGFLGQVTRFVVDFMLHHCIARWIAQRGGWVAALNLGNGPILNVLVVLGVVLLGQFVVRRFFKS
Test: cross-linking; crude homogenates of apigenin-treated (35 μM, 36 h) NPC cells incubated with 5 mM bismaleimidohexane (BMH) in PBS, 30 min, room temperature; then mitochondrial and ER/microsomal fractions, 10% SDS-PAGE, blot with BAX or BAK antibody
Settings: remark: other sources report otherwise

B1: Bcl-2 antagonist killer 1 (BAK), Q16611 1-211 (protein)
chain: T1 chain
binding: binds

From article PMC8224302
